Measured values from PMC5645467.
These are yes or no findings as the source states them, for the method shown.

Molecular target: T1, RCC1 (human, wild type, free protein) (human), P18754
T1 chain: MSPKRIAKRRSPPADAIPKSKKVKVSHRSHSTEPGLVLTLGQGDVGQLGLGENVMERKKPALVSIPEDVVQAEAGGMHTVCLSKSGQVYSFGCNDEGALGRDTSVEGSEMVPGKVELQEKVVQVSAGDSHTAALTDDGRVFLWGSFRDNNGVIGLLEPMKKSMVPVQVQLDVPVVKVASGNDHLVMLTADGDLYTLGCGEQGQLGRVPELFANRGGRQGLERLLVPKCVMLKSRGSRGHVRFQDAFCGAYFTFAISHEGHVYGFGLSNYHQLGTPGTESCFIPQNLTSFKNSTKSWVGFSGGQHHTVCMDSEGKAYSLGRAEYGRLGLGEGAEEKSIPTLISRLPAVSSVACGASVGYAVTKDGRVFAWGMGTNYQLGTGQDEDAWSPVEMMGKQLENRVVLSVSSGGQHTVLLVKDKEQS
Assay: SAXS; human RCC1 alone in GF buffer, 2.5–5.0 mg ml^-1; both purified
Conditions: remark: other sources report otherwise

B1: RCC1 (human, wild type, free protein), P18754 1-421 (protein)
chain: MSPKRIAKRRSPPADAIPKSKKVKVSHRSHSTEPGLVLTLGQGDVGQLGLGENVMERKKPALVSIPEDVVQAEAGGMHTVCLSKSGQVYSFGCNDEGALGRDTSVEGSEMVPGKVELQEKVVQVSAGDSHTAALTDDGRVFLWGSFRDNNGVIGLLEPMKKSMVPVQVQLDVPVVKVASGNDHLVMLTADGDLYTLGCGEQGQLGRVPELFANRGGRQGLERLLVPKCVMLKSRGSRGHVRFQDAFCGAYFTFAISHEGHVYGFGLSNYHQLGTPGTESCFIPQNLTSFKNSTKSWVGFSGGQHHTVCMDSEGKAYSLGRAEYGRLGLGEGAEEKSIPTLISRLPAVSSVACGASVGYAVTKDGRVFAWGMGTNYQLGTGQDEDAWSPVEMMGKQLENRVVLSVSSGGQHTVLLVKDKEQS
  binding: no binding (tested: 2.5 and 5.0 mg ml^−1)
